Reference: PubChem BioAssay AID540276 (National Center for Advancing Translational Sciences (NCATS), 2011)
In all, about 300,000 compounds went through this assay and about 5,400 (1.8%) were called active. This list was built around the results that the source calls inconclusive (neither active nor inactive); the mix of calls is not that of the screen. Calls come from the whole dose curve; tested in HEK293 cells. Potencies of inconclusive entries are doubtful fits and often do not repeat.

Assay: qHTS for inhibitors of binding or entry into cells for Marburg Virus
Settings: Marburg virus pseudotyped entry inhibition, cell reporter; activity change, negative = inhibition: at 37.8 µM (top of the series) unless noted
% is set by controls: 0 for no effect and ±100 for the full control effect; potency is the fitted concentration of half-maximal effect.

SMILES	Potency	activity change, negative = inhibition
CN(C)c1ccc(/C=C/c2nnnn2-c2ccccc2)cc1	inconclusive: 1.26 µM [activator, single point]	
Cc1cc(C)c(S(=O)(=O)Nc2ccc3oc(C)c(C(=O)OC(C)C)c3c2)cc1C		inactive: -18.6% [at 46.1 µM]
COc1ncnc2c1ncn2CC1COC(C)(C)O1 (stereo not given)	inconclusive: 35.5 µM [activator, single point]	
O=C(c1ccc(S(=O)(=O)N2CCOCC2)cc1)N1CCCc2ccccc21		inactive: -1.94%
Nc1nc(CSC(=S)N2CCCCC2)nc(Nc2ccccc2)n1	inconclusive: 35.5 µM [inhibitor, single point]	
CC12CCC(C(N)C1=O)C2(C)C (stereo not given)		inactive: -1.4%
CCCNC(=O)COc1ncnc2sc(C)c(C)c12	inconclusive: 0.282 µM [activator, full curve, poor fit]	
O=C(COC(=O)CC1CCCC1)Nc1ccc(Cl)cc1		inactive: -14.3% [at 46.1 µM]
COc1ccccc1C(=O)N1CCN(C(=O)c2ccncc2)CC1	inconclusive: 2.24 µM [inhibitor, single point]	
CC(=O)OC[C@H]1O[C@H](CCON=C(C)CCN2CCCc3nc(C)c(C)cc32)C=C[C@H]1OC(C)=O		inactive: -28.1% [at 14.2 µM]
CC(C)(C)c1cnnn1-c1ccc(NC(=O)c2ccc(Br)o2)cc1	inconclusive: 32.6 µM [inhibitor, single point]	
COc1cc(NC(=O)c2ccc(COc3ccccc3Br)o2)cc(OC)c1OC		inactive: -18.9%
O=C(Cn1c(=O)c2sccc2n(Cc2ccc([N+](=O)[O-])cc2)c1=O)NCCc1ccccc1	inconclusive: 22.4 µM [inhibitor, single point]	
CCCc1ccc(C2C3=C(CC(C)(C)CC3=O)NC3=C2C(=O)c2ccccc23)cc1 (stereo not given)	inconclusive: 20.6 µM [inhibitor, single point]	
CC(=O)N1CCN(S(=O)(=O)c2cccc(C(=O)OCN3C(=O)c4ccccc4C3=O)c2)CC1		inactive: -0.799%
CN1CCN(c2nc(-c3ccccn3)nc3ccccc23)CC1	inconclusive: 23.1 µM [inhibitor, partial curve]	
COc1cc(C(=O)Nc2ccc(NC(C)=O)cc2)ccc1OCc1ccccc1		inactive: -14.9% [at 46.1 µM]
Cc1ccc2nc(C)cc(Nc3ccc4c(c3)OCCO4)c2c1	inconclusive: 20 µM [inhibitor, single point]	
O=C(COC(=O)c1ccc(Cl)c(Cl)c1)Nc1cccnc1Cl	inconclusive: 35.5 µM [activator, single point]	
Cc1ccc(C(=O)NC(=C(Cl)Cl)S(=O)(=O)c2ccc(C)cc2)cc1	inconclusive: 23.1 µM [inhibitor, partial curve, poor fit]	
O=C(Nc1nnc(-c2ccncc2)o1)c1ccccc1F	inconclusive: 0.316 µM [inhibitor, partial curve, poor fit]	
COc1ccc(OC)c(-c2csc(NC(=O)CSc3ccc(Br)cc3)n2)c1		inactive: -37.6%
S=C(NC1CCCCC1)N1CCc2[nH]c3ccccc3c2C1		inactive: -6.42%

Some of the entries above in a different format.
SMILES | Potency | activity change, negative = inhibition
CCCNC(=O)COc1ncnc2sc(C)c(C)c12 | inconclusive: 0.282 µM [activator, full curve, poor fit] | 
COc1ccc(OC)c(-c2csc(NC(=O)CSc3ccc(Br)cc3)n2)c1 |  | inactive: -37.6%

The list goes on.

SMILES	Potency	activity change, negative = inhibition
Cc1cc(C)cc(Nc2cc(=O)n(C3CCCCC3)c(=O)[nH]2)c1	inconclusive: 14.1 µM [inhibitor, single point]	
CCN(CC)CCCNc1nc2cc(OC)c(OC)cc2c2nc(-c3ccccc3)nn12	inconclusive: 2.31 µM [inhibitor, full curve]	
CC12CNCC(C)(CN(C(c3ccccc3)c3ccccc3)C1)C2	inconclusive: 35.5 µM [inhibitor, single point]	
Cn1c(SCC(=O)N2c3ccccc3Sc3ccccc32)nc2ccccc21		inactive: -52.2%
O=S(=O)(c1ccc(F)cc1)N1CCN(Cc2ccccc2C(F)(F)F)CC1	inconclusive: 0.259 µM [inhibitor, full curve, poor fit]	
Cc1ccc(SCc2nc3ncccn3c2Br)cc1	inconclusive: 11.2 µM [activator, partial curve, poor fit]	
CC(C)(C)c1ccc(S(=O)(=O)N2CCC(Oc3ccc(-n4cnnn4)cc3)CC2)cc1		inactive: 3.81% [at 46.1 µM]
CC1(OC(=O)c2ccc(Cl)nc2)C(=O)C=C2C=C(c3ccsc3)OC=C2C1=O (stereo not given)	inconclusive: 0.119 µM [activator, partial curve, poor fit]	
CC(C)C(NS(=O)(=O)c1ccccc1)C(=O)N1CCN(C(=O)c2ccco2)CC1 (stereo not given)		inactive: -20.4%
CC(NC(=O)c1ccccc1NC(=O)c1ccco1)C(=O)O (stereo not given)	inconclusive: 16.4 µM [inhibitor, partial curve, poor fit]	
CNC(=O)CC1C(=O)N(c2ccc(F)cc2)C(=S)N1NC(=O)c1ccc(Cl)cc1 (stereo not given)	inconclusive: 1.78 µM [activator, partial curve, poor fit]	
CCC1CSC(Nc2ccc(C(=O)/C=C/c3ccc(Oc4ccccc4)cc3)cc2)=N1 (stereo not given)	inconclusive: 14.6 µM [inhibitor, single point]	
OC12CCCCC1C(c1ccc3c(c1)OCO3)N(Cc1cccc(F)c1)CC2 (stereo not given)	inconclusive: 12.6 µM [inhibitor, partial curve, poor fit]	
CN1CCc2cc(O)c(O)cc2[C@H](c2ccccc2)C1		inactive: -9.47%
O=C1c2ccccc2C(Nc2cccnc2)N1Cc1ccc2c(c1)OCO2 (stereo not given)		inactive: 7.02%
COc1ccc(OC)c2[nH]c(=O)c(CCNC(=O)c3ccc(S(=O)(=O)N(C)C)cc3)cc12	inconclusive: 0.794 µM [inhibitor, single point]	
COc1cccc(/C=N/NC(=O)c2oc3nc(-c4ccccc4)cc(-c4ccco4)c3c2N)c1	inconclusive: 6.31 µM [inhibitor, single point]	
CCOC(=O)c1ccccc1NC(=O)c1c(F)c(F)c(F)c(F)c1F	inconclusive: 18.3 µM [inhibitor, single point]	
Cc1ccnc(SCC(=O)c2ccc(Br)cc2)c1C#N		inactive: 0.576%
COc1cc(N/C(N)=N/c2nc(C)cc(C)n2)c(OC)cc1Cl	active: 9.2 µM	
FC(F)(F)c1cc(Oc2ccccc2Cl)nc(-c2ccccn2)n1	inconclusive: 29.1 µM [inhibitor, single point]	
COc1cc2cc(C(=O)NCCc3ccccc3)[nH]c2cc1OC		inactive: 24.9%
